Test results as given in US20030073818A1.
Results are given in words; binding and its absence hold for the method and conditions named. In cells and extracts the contact can be indirect. Some binding calls cover weakened binding; strength is not graded here.

Target: S-Calcyon fusion protein (N-terminal S peptide tag and residues 93-217 of Calcyon) (human)
Test: competition in the pull-down of GSTD1 by immobilized S-Calcyon

binding: binds
B1: Peptide1 421-435, peptide containing D1 receptor residues 421-435 (peptide)
peptide: SVILDYDTDVSLEKI
